# Reference: PubChem BioAssay AID1347423 (Functional Genomics Laboratory (NCATS/FGL), 2020)
# Hit rate of the full screen: of about 52,000 sequences, about 210 (0.4%) were called active.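 The calls were made as follows: active = gene whose silencing raises cell survival under the drug, median off-target-corrected z-score across its silencing RNAs 2 or more; inactive = the rest.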 This is one part of the list.
# Assay: Resistance to Poly (ADP-Ribose) Polymerase inhibitor: Gene Identification via Genome-wide siRNA Screen
# Settings: mouse BRCA2 R2336H ES cells, olaparib, CellTiter-Glo viability; stronger effect = higher value
# In short: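 Mouse BRCA2 R2336H ES cells were reverse-transfected with siRNA (20 nM final), treated at 48 h with 500 nM olaparib, and read by CellTiter-Glo after 72 h. Scores: MAD-based z per siRNA, median per gene, seed off-target correction.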
row,Sequence,z-score
1,GUUGAUGAUAGAUCGUCAATT against LOC382106,inactive: 1.17
2,GGCCAGUCAAGGUUGGAUUTT against Gpr152,inactive: -0.962
3,GGUCAUCAACGUGCUAGAGTT against Nucb1,inactive: -1.24
4,GGAAUUCCACGGUAUUCACTT against A130007F10Rik,inactive: 2.04
5,GGCUAUGUUUCAGAAUAUGTT against 4933406N12Rik,inactive: -0.0316
6,GGUGUUUUAUAUGAACUGUTT against BC020077,inactive: -0.66
7,GGAAGAUCAAGGGACUCAUTT against Serpina3c,inactive: -0.281
8,GGCAUUGCUUUGCUGGUCUTT against Usmg5,inactive: 1.34
9,GGAGCGAGAGUAUCUAUUGTT against 2410019G02Rik,inactive: -2.54
10,GGAGGAAGAAACAGAACCATT against A930021G21Rik,inactive: -2.36
11,GCGUGUAUCUAGUGAAAUUTT against 4930524B15Rik,inactive: -1.68
12,GGCUGAAACAAGAACGUGATT against Bat2,inactive: 0.976
13,GGUGAAGCUGAAGAAGUACTT against Chst12,inactive: -0.734
14,GGAGAAAAAGGGAAAGAAUTT against Dlx4,inactive: -1.52
15,GGGUACACUCCAUGCUUAGTT against Tcap,inactive: 1.73
16,GCCAGAAAGAUUCCUUCCUTT against Olfr1419,inactive: -1.47
17,GCUGUCAGACUAAAGAUAUTT against Mmd,inactive: -0.0545
18,GGAUAACUCCUUAUUUAACTT against 2310042E22Rik,inactive: 0.797
19,GGAACCUCCUUAUUCAAUGTT against 4930470D19Rik,inactive: -1.59
20,GGACCUGGUCACCAUCUUGTT against Tram2,inactive: 0.873
21,GCUGGGAAGGUGACGUAAUTT against AA959742,inactive: 0.647
22,GGUCACCAAAGUGAAAACATT against Ndufa8,inactive: 0.655
23,GGGAUAUUGUUUUUUACAGTT against B230114J08Rik,inactive: -0.778
24,GGAUCAUAGUUACAAGGCUTT against L3mbtl2,inactive: 0.583
25,CCUACUUCCUCCAUUUAGGTT against 5033413D22Rik,inactive: 1.42
26,CCCACUCCGAUAUACUGCUTT against Olfr447,inactive: 0.895

# Fetched one by one from above (2):
row,Sequence,z-score
26,CCCACUCCGAUAUACUGCUTT against Olfr447,inactive: 0.895
6,GGUGUUUUAUAUGAACUGUTT against BC020077,inactive: -0.66

# Remaining list, next part

row,Sequence,z-score
1,GGAACACCAUCAUCAGUCATT against Ephb2,inactive: -0.442
2,GGCACAAUUUCUUUGAAUCTT against Ophn1,inactive: 0.000868
3,GGCCAUGAUUGAGAAGCUATT against Smtn,inactive: -0.0798
4,GGUGUCGAAGAUCACGUCATT against D10Bwg1364e,inactive: -2.24
5,GCAAAGAUCUUUGAGUAAGTT against 4632415L05Rik,inactive: -0.718
6,GCAGGCGAUAUAGAAGCAATT against Frg1,inactive: -2.08
7,GGUAUGCAUUCCAGAAAUATT against 4933409N07Rik,inactive: 0.411
8,GGUCUAUCCCAUCAUGCCUTT against Clcnka,inactive: 0.645
9,GGCUUUCACUGAAGAUCUUTT against Fancg,inactive: 1.18
10,AACACUGGGUACAUCUACATT against H2-Q7,inactive: 0.694
11,GGAUGAGAAUAGUGCUAAATT against 4933432P15Rik,inactive: -0.216
12,GGACAAUGCAGUGCUGAAATT against Car2,inactive: -0.591
13,CCAAAACGGAGAAAAUCAGTT against Ccar1,inactive: 1.22
14,GGUUAUCAUACUUUUUGUGTT against Phf10,inactive: 0.0269
15,CCUCCUAUGUCUUCCUCAUTT against Olfr1173,inactive: -0.136
16,CCUAGUAGUUGACCAUAUATT against 4732421G10Rik,inactive: -0.16
17,GCCUGGCUGACGAUAUAGATT against Golga2,inactive: 1.16
18,GUUACCACACCAAAAAUGGTT against Olfr1299,inactive: -0.314
19,GGUGUACCUUGGGACUUACTT against 2810441A10Rik,inactive: -0.555
20,GGAGCAUUUAAAAGUUCCATT against 6430514L14Rik,inactive: -0.31
21,GACUACAAAGGAGAGCAAATT against Igfbp6,inactive: 2
22,GGCUUUUAAGUUCUUCCAGTT against Rod1,inactive: -0.557
23,GGCAUUCAGUGUUGCGUACTT against Apba1,inactive: 0.905
24,GGAUUCCAGAGAAAUGUGATT against BC031901,inactive: -0.236
25,GGUGAUGAUCCCAUGGGUUTT against Ube2g2,inactive: -1.04
26,AUUCUCUGGUUCAAGCUACTT against Olfr223,inactive: -0.522

# As entered above.
# z-score, GGUGUACCUUGGGACUUACTT against 2810441A10Rik is entered as inactive: -0.555
# z-score, GCAAAGAUCUUUGAGUAAGTT against 4632415L05Rik is entered as inactive: -0.718

# Later entries:

row,Sequence,z-score
1,GGAACAACUUCGAACAUAATT against Dok3,inactive: -3.1
2,GGAGAAAAACAAAAACCAATT against Fliih,inactive: -1.39
3,GGGCAGUAAGACCUUCAUGTT against Dhcr24,inactive: 1.62
4,CCUGAAUACCAUGACAUGUTT against Tfpi2,inactive: -0.48
5,CGUGGUUAAGUUUGCUGGGTT against P2rx3,inactive: -0.11
6,GGCAGAGUGCAUUUUGCUATT against Ptpn5,inactive: -0.352
7,GCAUAAAGCAAGGUUGAGUTT against D7Ertd458e,inactive: 0.483
8,GGCCCUGUGAUAUUUCUCGTT against Pax8,inactive: -1.31
9,GGGCAAAGACAUUUUGUAUTT against Nt5c2,inactive: 0.606
10,CGGACUUCAAGGACAAGAUTT against Carm1,inactive: 0.0425
11,CCUUUGUAAAGACUACUUATT against Ssh2,inactive: 0.403
12,GGCUACAAACUUCAAGAAATT against Cel,inactive: -0.0479
13,GCCGAAUAUUUCGGAGCCATT against Ropn1,inactive: -3.06
14,GGCAGAGAAAGAGCUAAAGTT against Dtx3,inactive: 3.63
15,GCCGAGGCUGUUGUGUUGATT against Gpaa1,inactive: 1.09
16,GGAGGUCAGUAGCUUCCUUTT against 2310002B14Rik,inactive: 0.208
17,GCCAACGAGAGUAAACACGTT against 5930403N24Rik,inactive: 0.0348
18,GCAUCAUACCACUGUGUUUTT against Obox1,inactive: -1.18
19,GGAUUAUGGUCCAAAUAAATT against Hpcal4,inactive: -1.33
20,CCAUGUUUUCCGCUUCAAUTT against Kif1c,inactive: 0.202
21,CCAUCCCAUUUAAUGGAUGTT against Olfr1257,inactive: 0.686
22,GGAGGUCCAACUAAGACACTT against Fzd8,inactive: -0.057
23,GCCCUACGGACAAACAGCATT against 6330581L23Rik,inactive: 0.139
24,CCUUCUUGCUCACAAAGUATT against C030030G16Rik,inactive: -0.729
25,CCAUCUUCAACGAAACCUATT against 1700013E18Rik,inactive: 2.12
26,GGUCACGUGCAGUUAUAUCTT against Rab32,inactive: 0.0398

row,Sequence,z-score
1,GGACCUUCCGUGAGAUUAUTT against BC048082,inactive: 0.215
2,GGUGGCUAUGUAAUCUCAGTT against BC025206,inactive: 2.82
3,GGUGCAUUACAAAUACACATT against Ncf2,inactive: -0.0444
4,GGCAAAGCUGGUGAAAUACTT against Ksr,inactive: -0.214
5,GGAAUUGGAUUCAGUUUACTT against Ppp3ca,inactive: 1.12
6,GGAAAUCAAGAAAGCACAGTT against Guk1,inactive: -0.0782
7,GGCAGUCAAAUUUAUAGUATT against Ckap4,inactive: -0.24
8,GCGCAAUGCCAAGGUGUACTT against A930005I04Rik,inactive: 2.42
9,GGGUUCAAAAGCCCAUAUUTT against MGC107702,inactive: 2.49
10,GGCAAUAUCCGGUUUUUAGTT against Sema6d,inactive: 0.603
11,GCUCAGACAAGAAUUGCUATT against Specc1,inactive: -0.587
12,CCAACAUGCUCUAUCUUUUTT against 5330437I02Rik,inactive: -0.428
13,GCGAGUGAAAAACCAAGGCTT against Loxl1,inactive: -2.54
14,GGAAGACAGCAUGUGGACATT against Ghrh,inactive: -0.896
15,GGCAUUAUUAAAAGUGUGATT against Psmd9,inactive: 0.239
16,GGAAGCCUUUUGAUGACGCTT against Gsta3,inactive: -0.0564
17,GGCAUGAUGCUGAUCAUUCTT against Olfr1100,inactive: -0.701
18,UAAUAUCUGGCACUUUAUGTT against Ctxn,inactive: -0.124
19,GGUAAUUGAGCUGAGUUCUTT against Srisnf2l,inactive: -0.648
20,GGUACGGUGUUUUGGAUACTT against 2310044D20Rik,inactive: 0.047
21,GCUCUGUUGGAAAGGUUUATT against Exosc6,inactive: -0.686
22,CCUUGUUAUUAGGAACUCUTT against Xpo7,inactive: 0.906
23,GGACAAGCAAUAACUCUACTT against Mapkapk2,inactive: -0.948
24,GGUAGUGAAGUUCUCCUACTT against Spop,inactive: -0.41
25,GGACCUAAGUGUGAAAUACTT against 2810408E11Rik,inactive: -0.0518
